Measured values taken from paper PMC7284125, “Identification of annotated bioactive molecules that impair motility of the blood fluke Schistosoma mansoni” (International Journal for Parasitology: Drugs and Drug …, 2020).

By UniProt entry, the sequences of proteins in these tests, tags left out.
UniProt G4LUJ1, entry or part of it: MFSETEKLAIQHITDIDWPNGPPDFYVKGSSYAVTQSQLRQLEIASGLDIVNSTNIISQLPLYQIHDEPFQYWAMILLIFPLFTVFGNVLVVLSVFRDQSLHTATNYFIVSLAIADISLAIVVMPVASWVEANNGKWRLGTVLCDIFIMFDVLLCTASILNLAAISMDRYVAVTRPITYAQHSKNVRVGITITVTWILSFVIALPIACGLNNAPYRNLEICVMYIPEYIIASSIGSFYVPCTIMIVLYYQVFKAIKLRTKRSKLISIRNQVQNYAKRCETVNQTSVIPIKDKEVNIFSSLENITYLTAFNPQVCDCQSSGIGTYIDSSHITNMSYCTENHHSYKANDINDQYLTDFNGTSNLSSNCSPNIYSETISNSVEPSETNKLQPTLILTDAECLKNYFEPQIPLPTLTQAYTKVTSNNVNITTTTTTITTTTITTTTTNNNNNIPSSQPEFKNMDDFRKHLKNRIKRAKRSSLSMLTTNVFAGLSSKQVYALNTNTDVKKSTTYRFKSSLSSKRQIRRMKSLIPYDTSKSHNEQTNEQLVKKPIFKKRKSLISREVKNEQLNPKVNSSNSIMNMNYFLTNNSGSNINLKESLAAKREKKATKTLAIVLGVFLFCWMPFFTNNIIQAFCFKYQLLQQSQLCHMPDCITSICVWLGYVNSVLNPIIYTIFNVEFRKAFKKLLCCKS

Target: SmD2 (Schistosoma mansoni, UniProt G4LUJ1)
Assay: cell-based

| Structure (SMILES) | IC50 [µM] |
| --- | --- |
| O=C1CCc2ccc(OCCCCN3CCN(c4cccc(Cl)c4Cl)CC3)cc2N1 [Aripiprazole] | 3.75 |
| O=C(CCCN1CCC(O)(c2ccc(Cl)cc2)CC1)c1ccc(F)cc1 [haloperidol] | 24.3 |
